Our source for the binding values is publication PMC5122325.

Chains of the proteins cited; added tags and fusions are not shown.
UniProt Q8TDD2: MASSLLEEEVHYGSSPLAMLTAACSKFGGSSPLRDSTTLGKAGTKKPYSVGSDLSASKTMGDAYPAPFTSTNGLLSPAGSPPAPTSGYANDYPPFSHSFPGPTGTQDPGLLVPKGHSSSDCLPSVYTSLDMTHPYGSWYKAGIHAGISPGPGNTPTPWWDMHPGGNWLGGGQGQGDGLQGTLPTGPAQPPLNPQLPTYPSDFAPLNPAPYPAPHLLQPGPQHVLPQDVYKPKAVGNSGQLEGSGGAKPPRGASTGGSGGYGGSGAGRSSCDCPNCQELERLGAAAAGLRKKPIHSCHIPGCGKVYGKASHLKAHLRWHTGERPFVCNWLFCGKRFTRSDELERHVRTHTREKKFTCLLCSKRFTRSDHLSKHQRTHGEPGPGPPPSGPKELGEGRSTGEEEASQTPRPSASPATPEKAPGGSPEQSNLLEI
UniProt P45481: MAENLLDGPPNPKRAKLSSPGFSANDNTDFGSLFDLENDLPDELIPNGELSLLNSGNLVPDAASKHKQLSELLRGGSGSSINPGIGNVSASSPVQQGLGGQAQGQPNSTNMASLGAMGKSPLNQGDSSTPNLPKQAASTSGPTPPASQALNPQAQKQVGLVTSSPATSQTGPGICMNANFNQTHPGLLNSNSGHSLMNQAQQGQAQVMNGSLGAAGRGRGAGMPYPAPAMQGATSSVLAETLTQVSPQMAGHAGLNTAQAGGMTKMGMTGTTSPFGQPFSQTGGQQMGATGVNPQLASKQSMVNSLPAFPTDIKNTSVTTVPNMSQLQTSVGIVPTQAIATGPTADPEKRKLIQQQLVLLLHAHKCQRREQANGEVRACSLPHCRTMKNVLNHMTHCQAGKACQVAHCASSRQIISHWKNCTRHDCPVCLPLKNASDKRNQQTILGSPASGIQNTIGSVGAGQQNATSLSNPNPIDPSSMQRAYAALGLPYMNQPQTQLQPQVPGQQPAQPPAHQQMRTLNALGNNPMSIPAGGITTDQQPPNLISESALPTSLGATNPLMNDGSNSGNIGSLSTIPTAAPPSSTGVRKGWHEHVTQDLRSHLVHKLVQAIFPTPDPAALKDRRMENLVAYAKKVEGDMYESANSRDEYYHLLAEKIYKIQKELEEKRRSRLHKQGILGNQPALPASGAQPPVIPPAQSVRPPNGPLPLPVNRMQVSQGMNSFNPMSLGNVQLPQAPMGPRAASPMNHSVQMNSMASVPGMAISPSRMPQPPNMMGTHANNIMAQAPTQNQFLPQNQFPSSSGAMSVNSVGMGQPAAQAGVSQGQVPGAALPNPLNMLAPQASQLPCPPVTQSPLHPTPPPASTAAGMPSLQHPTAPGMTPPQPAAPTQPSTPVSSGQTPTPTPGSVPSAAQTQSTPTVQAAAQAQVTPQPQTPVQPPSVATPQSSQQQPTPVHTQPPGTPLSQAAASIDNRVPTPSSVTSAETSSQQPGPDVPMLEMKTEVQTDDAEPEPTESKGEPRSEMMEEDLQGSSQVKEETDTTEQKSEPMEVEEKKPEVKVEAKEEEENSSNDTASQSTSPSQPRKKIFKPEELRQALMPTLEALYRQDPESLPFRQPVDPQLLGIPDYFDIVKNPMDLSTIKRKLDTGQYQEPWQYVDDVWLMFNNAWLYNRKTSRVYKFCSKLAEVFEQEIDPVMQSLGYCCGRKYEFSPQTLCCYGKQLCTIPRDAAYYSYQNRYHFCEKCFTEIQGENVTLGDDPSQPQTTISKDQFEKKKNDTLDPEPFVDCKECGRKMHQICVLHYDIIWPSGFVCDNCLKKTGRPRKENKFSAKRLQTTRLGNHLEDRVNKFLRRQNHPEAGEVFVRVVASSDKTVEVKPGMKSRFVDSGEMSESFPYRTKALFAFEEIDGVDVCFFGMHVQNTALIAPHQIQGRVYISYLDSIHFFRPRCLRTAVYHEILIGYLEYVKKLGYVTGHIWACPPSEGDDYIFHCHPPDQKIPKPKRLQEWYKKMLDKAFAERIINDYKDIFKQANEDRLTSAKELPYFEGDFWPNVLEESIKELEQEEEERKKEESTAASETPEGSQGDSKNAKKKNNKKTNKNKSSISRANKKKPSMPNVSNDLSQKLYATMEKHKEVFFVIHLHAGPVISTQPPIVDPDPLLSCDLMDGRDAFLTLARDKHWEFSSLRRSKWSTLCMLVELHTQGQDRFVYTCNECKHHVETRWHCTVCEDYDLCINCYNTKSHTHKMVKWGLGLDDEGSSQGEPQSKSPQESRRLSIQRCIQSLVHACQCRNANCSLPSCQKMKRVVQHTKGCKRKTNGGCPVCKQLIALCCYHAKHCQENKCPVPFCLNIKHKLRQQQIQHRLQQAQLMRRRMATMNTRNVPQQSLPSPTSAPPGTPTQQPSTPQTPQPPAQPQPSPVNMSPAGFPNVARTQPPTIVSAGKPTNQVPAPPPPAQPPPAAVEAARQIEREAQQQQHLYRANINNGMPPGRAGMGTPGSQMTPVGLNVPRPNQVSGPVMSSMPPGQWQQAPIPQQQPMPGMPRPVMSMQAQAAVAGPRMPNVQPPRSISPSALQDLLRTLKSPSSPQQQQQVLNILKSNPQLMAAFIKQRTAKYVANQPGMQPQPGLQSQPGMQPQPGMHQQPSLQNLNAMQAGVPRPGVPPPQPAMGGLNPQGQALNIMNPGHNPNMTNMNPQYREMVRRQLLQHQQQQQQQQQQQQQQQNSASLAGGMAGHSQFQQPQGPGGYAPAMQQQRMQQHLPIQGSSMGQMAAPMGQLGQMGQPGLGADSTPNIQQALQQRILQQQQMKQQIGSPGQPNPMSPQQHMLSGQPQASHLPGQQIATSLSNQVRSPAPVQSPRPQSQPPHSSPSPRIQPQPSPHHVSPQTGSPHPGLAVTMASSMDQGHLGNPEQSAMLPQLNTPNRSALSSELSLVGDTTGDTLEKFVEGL
UniProt P56524: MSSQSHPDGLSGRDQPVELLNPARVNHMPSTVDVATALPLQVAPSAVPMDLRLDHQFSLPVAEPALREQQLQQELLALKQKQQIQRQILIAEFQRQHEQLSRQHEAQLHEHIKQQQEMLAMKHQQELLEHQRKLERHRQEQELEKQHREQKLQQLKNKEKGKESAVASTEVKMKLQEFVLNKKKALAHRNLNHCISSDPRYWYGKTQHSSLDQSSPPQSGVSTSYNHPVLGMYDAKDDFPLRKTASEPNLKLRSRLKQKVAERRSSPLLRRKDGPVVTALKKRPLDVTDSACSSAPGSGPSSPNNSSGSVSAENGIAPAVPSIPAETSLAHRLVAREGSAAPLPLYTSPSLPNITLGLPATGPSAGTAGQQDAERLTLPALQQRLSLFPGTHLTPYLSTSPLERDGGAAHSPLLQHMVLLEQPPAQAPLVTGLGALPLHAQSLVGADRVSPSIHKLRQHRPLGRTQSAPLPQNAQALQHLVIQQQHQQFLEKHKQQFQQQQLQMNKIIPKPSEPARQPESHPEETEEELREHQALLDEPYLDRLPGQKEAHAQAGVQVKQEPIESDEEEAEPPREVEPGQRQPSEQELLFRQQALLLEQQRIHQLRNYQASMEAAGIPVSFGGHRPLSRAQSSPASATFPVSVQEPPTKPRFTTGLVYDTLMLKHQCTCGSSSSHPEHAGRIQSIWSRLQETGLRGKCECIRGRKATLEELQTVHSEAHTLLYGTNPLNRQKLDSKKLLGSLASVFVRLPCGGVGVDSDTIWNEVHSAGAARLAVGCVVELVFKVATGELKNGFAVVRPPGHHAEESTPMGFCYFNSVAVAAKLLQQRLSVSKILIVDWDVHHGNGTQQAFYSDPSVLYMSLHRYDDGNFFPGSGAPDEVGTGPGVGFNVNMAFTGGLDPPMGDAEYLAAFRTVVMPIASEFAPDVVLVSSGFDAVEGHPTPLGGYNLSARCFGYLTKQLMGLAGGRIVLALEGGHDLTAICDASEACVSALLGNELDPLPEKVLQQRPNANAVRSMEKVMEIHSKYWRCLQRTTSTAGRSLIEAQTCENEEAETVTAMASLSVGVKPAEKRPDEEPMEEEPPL

Holding throughout (assay): co-IP; HEK 293T cells co-transfected, lysed 48 h later in RIPA buffer (50 mM Tris-HCl pH 7.5, 150 mM NaCl, 1% NP-40, 0.5% sodium deoxycholate, 0.1% SDS); lysates with anti-Flag, anti-Osx or anti-HA antibody at 4°C overnight, protein-G agarose beads, three washes in RIPA; blots with anti-HA or anti-Flag
The target in experiment [1] is HA-Osx (UniProt Q8TDD2).
For experiment [2], the target named is Flag-CBP-HA (CREB binding protein) (UniProt P45481).
Experiment [3] concerns the target Flag-HDAC4 (UniProt P56524).

No constants are given. Whether binding was seen depends on the method and setting. Binding seen in cells or lysates may run through a third protein. Some results given as binding are weak or reduced against the parent protein; the word gives no strength.

On to “Flag-CBP-HA (CREB binding protein) (from UniProt P45481 1-2441) (enzyme)”, for which, in experiment [1], the binding entry is “binds”.
For the substance “HA-Osx-GFP (Osterix fused to GFP) (from UniProt Q8TDD2 1-431)”, the binding result in experiment [2] and in experiment [3] was “binds” each time.
